Source: PubChem BioAssay AID1224826 (NIAID, 2016)
Test: 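Knock-downs that raise or lower Tnf reporter signal after endotoxin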 (primary screen). Cells: RAW264.7 G9 macrophages from mouse bearing reporters for p65 (GFP) and the Tnf promoter (mCherry). Reagents: siRNA pool against mouse genes, 100 nM. Timing: 16 h of LPS stimulation, after 2 days of siRNA transfection. Conditions: bacterial lipopolysaccharide (Salmonella minnesota R595), 10 ng/ml. Measurement: 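Imaged Tnf reporter mCherry in nuclei, minus background, normalised per plate to the median and expressed as robust z-scores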. Reading the numbers: Tnf reporter robust z-score: higher = stronger Tnf promoter reporter signal after LPS; Tnf reporter intensity: higher = stronger Tnf promoter reporter signal. Active means: 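Called active when robust z-score is at most -1.3, matching the median of the Tlr4 knock-down control, or over 3; control wells and wells with under 50 cells never active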. Meaning of the calls: active = Tnf reporter clearly lowered or raised; inactive = no clear change in Tnf reporter.
The deposit covers about 17,000 reagents; shown is a part drawn at random. Over the whole deposit, about 1,110 (6.6%) are marked active. 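Active means lowered or raised reporter signal; replicate intensities are raw and not normalised per plate.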

target gene	Tnf reporter robust z-score	fewer than 50 cells in well	Tnf reporter intensity, replicate 1	Tnf reporter intensity, replicate 2	call
Itsn1 (intersectin 1 (SH3 domain protein 1A))	1.6	enough cells in well	376	226	inactive
Pth (parathyroid hormone)	-0.34	enough cells in well	319	56.2	inactive
Ptbp1 (polypyrimidine tract binding protein 1)	-0.15	enough cells in well	203	208	inactive
Cndp2 (CNDP dipeptidase 2)	0.08	enough cells in well	154	203	inactive
Or8g34 (olfactory receptor family 8 subfamily G member 34)	-0.16	enough cells in well	144	121	inactive
Zfy1 (zinc finger protein 1, Y-linked)	-0.98	enough cells in well	57.2	83.4	inactive
Pals1 (protein associated with LIN7 1, MAGUK family member)	1.74	enough cells in well	257	226	inactive
Maf1 (MAF1 homolog, negative regulator of RNA polymerase III)	2.78	enough cells in well	360	291	inactive
Or52e2 (olfactory receptor family 52 subfamily E member 2)		fewer than 50 cells per well; well left out of calls	32.1	88.4	inactive
Adss2 (adenylosuccinate synthase 2)	-0.48	enough cells in well	122	164	inactive
Bhmt2 (betaine-homocysteine methyltransferase 2)		fewer than 50 cells per well; well left out of calls	155	132	inactive
Vmn1r43 (vomeronasal 1 receptor 43)		fewer than 50 cells per well; well left out of calls	34.6	39.2	inactive
Pctp (phosphatidylcholine transfer protein)	-0.79	enough cells in well	119	86.9	inactive
Dapk1 (death associated protein kinase 1)		fewer than 50 cells per well; well left out of calls	95.5	87.7	inactive
Tgm1 (transglutaminase 1, K polypeptide)	-0.47	enough cells in well	220	97.9	inactive
Vsig2 (V-set and immunoglobulin domain containing 2)	0.4	enough cells in well	191	167	inactive
Or5ak22 (olfactory receptor family 5 subfamily AK member 22)	-0.49	enough cells in well	132	102	inactive
Tm4sf20 (transmembrane 4 L six family member 20)	-1.09	enough cells in well	132	54	inactive
Pes1 (pescadillo ribosomal biogenesis factor 1)	0	enough cells in well	293	142	inactive
Crk (Crk proto-oncogene, adaptor protein)	-0.95	enough cells in well	171	127	inactive
4930542C12Rik (RIKEN cDNA 4930542C12 gene)		fewer than 50 cells per well; well left out of calls	312	195	inactive
Fam124b (family with sequence similarity 124, member B)	-0.76	enough cells in well	113	130	inactive
Pik3r5 (phosphoinositide-3-kinase regulatory subunit 5)	-0.27	enough cells in well	224	193	inactive
Srrm3 (serine/arginine repetitive matrix 3)	-0.3	enough cells in well	147	145	inactive
Prp15 (retired record)	-0.52	enough cells in well	110	104	inactive

Ordered by “Tnf reporter intensity, replicate 2” (descending): some entries from above
target gene	Tnf reporter robust z-score	fewer than 50 cells in well	Tnf reporter intensity, replicate 1	Tnf reporter intensity, replicate 2	call
4930542C12Rik (RIKEN cDNA 4930542C12 gene)		fewer than 50 cells per well; well left out of calls	312	195	inactive
Pes1 (pescadillo ribosomal biogenesis factor 1)	0	enough cells in well	293	142	inactive
Fam124b (family with sequence similarity 124, member B)	-0.76	enough cells in well	113	130	inactive
Crk (Crk proto-oncogene, adaptor protein)	-0.95	enough cells in well	171	127	inactive
Tm4sf20 (transmembrane 4 L six family member 20)	-1.09	enough cells in well	132	54	inactive

Additional reagents:
target gene	Tnf reporter robust z-score	fewer than 50 cells in well	Tnf reporter intensity, replicate 1	Tnf reporter intensity, replicate 2	call
Spic (Spi-C transcription factor (Spi-1/PU.1 related))	-0.68	enough cells in well	229	154	inactive
Nipa1		fewer than 50 cells per well; well left out of calls	112	90.5	inactive
Gm839 (predicted gene 839)	0.68	enough cells in well	311	196	inactive
Obsl1 (obscurin-like 1)	-0.94	enough cells in well	142	105	inactive
Gja4 (gap junction protein, alpha 4)	-0.21	enough cells in well	241	215	inactive
Pald1 (phosphatase domain containing, paladin 1)	0.39	enough cells in well	262	214	inactive
Tmem121 (transmembrane protein 121)		fewer than 50 cells per well; well left out of calls	152	39.4	inactive
Ttc1 (tetratricopeptide repeat domain 1)	0.75	enough cells in well	148	98	inactive
Hmgcll1 (3-hydroxymethyl-3-methylglutaryl-Coenzyme A lyase-like 1)		fewer than 50 cells per well; well left out of calls	111	71	inactive
C1ql2 (complement component 1, q subcomponent-like 2)	0.92	enough cells in well	11.7	216	inactive
Slc2a5	-0.8	enough cells in well	143	115	inactive
Npc1l1 (NPC1 like intracellular cholesterol transporter 1)	-0.11	enough cells in well	179	146	inactive
BC024139 (cDNA sequence BC024139)	-1.09	enough cells in well	120	144	inactive
Hid1 (HID1 domain containing)	-1.09	enough cells in well	70.5	103	inactive
Fgf22 (fibroblast growth factor 22)	0.96	enough cells in well	296	202	inactive
Foxo3 (forkhead box O3)	1.12	enough cells in well	331	344	inactive
Phxr1 (per-hexamer repeat gene 1)	-0.3	enough cells in well	150	117	inactive
Esd (esterase D/formylglutathione hydrolase)	0.24	enough cells in well	220	280	inactive
Izumo1r (IZUMO1 receptor, JUNO)	0.67	enough cells in well	306	166	inactive
Or1j17 (olfactory receptor family 1 subfamily J member 17)	-0.59	enough cells in well	149	93.8	inactive
Or1j13 (olfactory receptor family 1 subfamily J member 13)	0.21	enough cells in well	205	121	inactive
Marveld2 (MARVEL (membrane-associating) domain containing 2)	-1.3	enough cells in well	104	72.1	active
Exoc5 (exocyst complex component 5)	-0.48	enough cells in well	128	157	inactive
Lce1f (late cornified envelope 1F)		fewer than 50 cells per well; well left out of calls	169	48.9	inactive
Apbb3 (amyloid beta precursor protein binding family B member 3)	0.2	enough cells in well	186	174	inactive
Nanos3 (nanos C2HC-type zinc finger 3)	-1.71	enough cells in well	97	53.3	active
Senp6 (SUMO/sentrin specific peptidase 6)	0.36	enough cells in well	115	111	inactive
Ccdc90b (coiled-coil domain containing 90B)	3.69	enough cells in well	340	187	active
Serpina3k (serine (or cysteine) peptidase inhibitor, clade A, member 3K)	1.17	enough cells in well	130	154	inactive
Gpr88 (G-protein coupled receptor 88)	-0.69	enough cells in well	151	251	inactive
Tmod4 (tropomodulin 4)	-1.39	enough cells in well	64.7	38.4	active
Ube2e2 (ubiquitin-conjugating enzyme E2E 2)	5.21	enough cells in well	284	253	active
S100a13 (S100 calcium binding protein A13)	-1.56	enough cells in well	136	104	active
